In the supplement of paper PMC11006884:
The list shows a part of the results, in another mix than the full data.

Protein sequences, listed by entry. Tags and fused reporters are not part of them. Lines headed by an entry give the natural chain unless they say otherwise; changes in a name come on top.
UniProt Q9BW19: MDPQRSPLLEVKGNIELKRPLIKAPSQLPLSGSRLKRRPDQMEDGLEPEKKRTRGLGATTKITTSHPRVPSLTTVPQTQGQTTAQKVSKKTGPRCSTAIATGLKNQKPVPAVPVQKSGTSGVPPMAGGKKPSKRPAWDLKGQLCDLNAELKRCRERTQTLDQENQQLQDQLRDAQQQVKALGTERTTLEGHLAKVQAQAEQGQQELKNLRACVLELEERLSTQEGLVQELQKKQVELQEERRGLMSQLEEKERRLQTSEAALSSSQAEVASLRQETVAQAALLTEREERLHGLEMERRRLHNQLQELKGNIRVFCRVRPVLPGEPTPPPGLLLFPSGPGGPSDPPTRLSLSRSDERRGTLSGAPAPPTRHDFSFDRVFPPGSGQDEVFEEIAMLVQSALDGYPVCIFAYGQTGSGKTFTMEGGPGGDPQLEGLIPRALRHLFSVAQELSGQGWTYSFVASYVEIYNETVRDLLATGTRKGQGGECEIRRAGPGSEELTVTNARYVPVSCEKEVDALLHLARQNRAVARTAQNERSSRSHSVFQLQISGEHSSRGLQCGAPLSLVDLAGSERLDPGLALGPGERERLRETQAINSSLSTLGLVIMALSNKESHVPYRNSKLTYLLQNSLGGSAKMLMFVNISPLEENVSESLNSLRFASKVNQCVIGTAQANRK
UniProt Q9BVP2: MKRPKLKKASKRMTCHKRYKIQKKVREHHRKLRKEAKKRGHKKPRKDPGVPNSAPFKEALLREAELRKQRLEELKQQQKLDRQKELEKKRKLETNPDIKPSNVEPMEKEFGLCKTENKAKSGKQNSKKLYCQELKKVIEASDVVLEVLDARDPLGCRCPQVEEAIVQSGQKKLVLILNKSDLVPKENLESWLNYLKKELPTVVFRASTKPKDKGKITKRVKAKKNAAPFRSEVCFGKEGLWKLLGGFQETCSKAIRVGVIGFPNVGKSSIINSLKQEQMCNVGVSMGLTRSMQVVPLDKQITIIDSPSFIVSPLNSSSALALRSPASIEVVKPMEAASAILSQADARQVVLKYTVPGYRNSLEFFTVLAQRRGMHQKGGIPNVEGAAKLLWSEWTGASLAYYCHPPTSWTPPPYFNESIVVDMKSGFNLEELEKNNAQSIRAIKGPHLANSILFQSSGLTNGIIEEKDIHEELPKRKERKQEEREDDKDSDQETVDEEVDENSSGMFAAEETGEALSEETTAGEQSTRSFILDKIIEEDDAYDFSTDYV
UniProt Q9BRS8: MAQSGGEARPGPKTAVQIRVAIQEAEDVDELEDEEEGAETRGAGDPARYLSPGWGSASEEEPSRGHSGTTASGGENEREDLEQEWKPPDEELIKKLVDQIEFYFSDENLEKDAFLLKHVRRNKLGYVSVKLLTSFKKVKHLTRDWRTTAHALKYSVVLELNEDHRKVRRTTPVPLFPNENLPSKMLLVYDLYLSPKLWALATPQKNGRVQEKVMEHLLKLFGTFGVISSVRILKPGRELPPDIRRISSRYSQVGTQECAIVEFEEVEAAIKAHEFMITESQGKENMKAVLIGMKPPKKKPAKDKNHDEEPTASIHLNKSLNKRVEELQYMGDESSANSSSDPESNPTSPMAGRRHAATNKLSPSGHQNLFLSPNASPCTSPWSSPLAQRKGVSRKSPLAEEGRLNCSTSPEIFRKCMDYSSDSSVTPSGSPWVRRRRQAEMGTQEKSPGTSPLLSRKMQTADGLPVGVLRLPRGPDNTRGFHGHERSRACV
UniProt Q9BZZ5: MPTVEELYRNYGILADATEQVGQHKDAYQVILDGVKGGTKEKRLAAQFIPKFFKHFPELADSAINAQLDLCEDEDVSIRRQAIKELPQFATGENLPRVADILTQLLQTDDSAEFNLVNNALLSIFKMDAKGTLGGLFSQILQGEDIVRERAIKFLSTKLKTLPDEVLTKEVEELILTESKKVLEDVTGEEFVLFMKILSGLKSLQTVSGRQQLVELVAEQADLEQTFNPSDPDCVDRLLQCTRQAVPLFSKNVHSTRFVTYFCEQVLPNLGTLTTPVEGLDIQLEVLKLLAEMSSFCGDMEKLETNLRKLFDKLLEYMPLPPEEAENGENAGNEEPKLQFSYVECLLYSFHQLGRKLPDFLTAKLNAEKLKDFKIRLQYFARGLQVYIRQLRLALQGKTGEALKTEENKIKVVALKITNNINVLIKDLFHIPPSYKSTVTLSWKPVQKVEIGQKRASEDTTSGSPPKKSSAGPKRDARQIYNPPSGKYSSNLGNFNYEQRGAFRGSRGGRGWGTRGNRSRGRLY
UniProt Q9H1Y0: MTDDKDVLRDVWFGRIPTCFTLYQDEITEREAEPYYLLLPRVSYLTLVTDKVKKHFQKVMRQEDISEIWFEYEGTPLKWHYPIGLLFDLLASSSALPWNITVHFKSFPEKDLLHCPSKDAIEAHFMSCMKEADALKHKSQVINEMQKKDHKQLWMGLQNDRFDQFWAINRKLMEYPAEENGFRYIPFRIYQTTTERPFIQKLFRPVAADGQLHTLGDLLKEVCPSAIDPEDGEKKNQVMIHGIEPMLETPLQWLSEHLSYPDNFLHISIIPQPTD
UniProt Q9BWT3: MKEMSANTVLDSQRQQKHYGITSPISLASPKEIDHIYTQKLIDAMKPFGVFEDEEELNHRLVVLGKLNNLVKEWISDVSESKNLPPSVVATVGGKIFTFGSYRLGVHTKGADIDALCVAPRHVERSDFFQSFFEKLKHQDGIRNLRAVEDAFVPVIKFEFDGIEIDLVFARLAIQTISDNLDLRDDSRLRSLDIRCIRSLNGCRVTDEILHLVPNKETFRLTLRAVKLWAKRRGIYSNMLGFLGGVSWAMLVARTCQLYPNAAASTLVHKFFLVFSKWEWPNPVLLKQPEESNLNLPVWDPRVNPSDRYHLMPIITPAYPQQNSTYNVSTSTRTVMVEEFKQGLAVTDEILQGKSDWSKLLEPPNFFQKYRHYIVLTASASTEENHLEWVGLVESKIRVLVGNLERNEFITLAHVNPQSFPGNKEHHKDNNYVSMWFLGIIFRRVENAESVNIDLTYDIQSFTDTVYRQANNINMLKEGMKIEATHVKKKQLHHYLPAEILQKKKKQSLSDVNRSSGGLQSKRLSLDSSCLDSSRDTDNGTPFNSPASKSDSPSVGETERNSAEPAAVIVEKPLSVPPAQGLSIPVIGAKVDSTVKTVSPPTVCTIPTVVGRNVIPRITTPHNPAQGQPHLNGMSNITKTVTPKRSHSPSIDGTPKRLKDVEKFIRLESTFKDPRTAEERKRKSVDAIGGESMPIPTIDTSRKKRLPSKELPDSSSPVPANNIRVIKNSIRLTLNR
UniProt Q9BZH6: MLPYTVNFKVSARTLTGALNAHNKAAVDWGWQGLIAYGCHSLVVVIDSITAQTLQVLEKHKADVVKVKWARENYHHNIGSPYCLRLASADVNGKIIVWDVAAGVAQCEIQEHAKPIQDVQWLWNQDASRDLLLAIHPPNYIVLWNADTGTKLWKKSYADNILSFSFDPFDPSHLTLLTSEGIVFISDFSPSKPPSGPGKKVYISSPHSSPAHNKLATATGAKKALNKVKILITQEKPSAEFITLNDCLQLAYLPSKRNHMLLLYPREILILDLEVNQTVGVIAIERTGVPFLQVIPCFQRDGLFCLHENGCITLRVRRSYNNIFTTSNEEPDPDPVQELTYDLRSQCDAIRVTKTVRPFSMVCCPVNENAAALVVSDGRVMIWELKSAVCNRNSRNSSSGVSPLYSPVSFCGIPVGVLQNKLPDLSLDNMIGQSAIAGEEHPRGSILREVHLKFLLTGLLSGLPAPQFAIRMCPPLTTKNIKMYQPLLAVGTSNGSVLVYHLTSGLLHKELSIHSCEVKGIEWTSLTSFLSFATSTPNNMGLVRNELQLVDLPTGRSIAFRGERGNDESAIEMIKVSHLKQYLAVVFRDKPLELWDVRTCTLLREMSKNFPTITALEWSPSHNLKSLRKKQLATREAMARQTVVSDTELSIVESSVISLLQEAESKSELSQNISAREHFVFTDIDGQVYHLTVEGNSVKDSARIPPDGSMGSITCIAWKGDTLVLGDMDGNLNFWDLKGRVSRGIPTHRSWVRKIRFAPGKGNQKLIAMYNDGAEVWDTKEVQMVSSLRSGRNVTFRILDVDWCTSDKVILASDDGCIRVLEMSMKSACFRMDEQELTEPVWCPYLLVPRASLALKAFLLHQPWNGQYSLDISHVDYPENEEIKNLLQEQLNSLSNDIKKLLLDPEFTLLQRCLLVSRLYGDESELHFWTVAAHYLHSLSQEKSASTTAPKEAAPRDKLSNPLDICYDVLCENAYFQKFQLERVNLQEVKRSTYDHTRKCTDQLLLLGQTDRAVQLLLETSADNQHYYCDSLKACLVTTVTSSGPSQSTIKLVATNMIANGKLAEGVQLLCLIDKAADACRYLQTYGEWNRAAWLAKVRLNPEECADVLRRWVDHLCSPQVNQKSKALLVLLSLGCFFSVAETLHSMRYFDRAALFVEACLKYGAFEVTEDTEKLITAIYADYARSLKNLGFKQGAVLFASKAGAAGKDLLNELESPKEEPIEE
UniProt Q9H2G2: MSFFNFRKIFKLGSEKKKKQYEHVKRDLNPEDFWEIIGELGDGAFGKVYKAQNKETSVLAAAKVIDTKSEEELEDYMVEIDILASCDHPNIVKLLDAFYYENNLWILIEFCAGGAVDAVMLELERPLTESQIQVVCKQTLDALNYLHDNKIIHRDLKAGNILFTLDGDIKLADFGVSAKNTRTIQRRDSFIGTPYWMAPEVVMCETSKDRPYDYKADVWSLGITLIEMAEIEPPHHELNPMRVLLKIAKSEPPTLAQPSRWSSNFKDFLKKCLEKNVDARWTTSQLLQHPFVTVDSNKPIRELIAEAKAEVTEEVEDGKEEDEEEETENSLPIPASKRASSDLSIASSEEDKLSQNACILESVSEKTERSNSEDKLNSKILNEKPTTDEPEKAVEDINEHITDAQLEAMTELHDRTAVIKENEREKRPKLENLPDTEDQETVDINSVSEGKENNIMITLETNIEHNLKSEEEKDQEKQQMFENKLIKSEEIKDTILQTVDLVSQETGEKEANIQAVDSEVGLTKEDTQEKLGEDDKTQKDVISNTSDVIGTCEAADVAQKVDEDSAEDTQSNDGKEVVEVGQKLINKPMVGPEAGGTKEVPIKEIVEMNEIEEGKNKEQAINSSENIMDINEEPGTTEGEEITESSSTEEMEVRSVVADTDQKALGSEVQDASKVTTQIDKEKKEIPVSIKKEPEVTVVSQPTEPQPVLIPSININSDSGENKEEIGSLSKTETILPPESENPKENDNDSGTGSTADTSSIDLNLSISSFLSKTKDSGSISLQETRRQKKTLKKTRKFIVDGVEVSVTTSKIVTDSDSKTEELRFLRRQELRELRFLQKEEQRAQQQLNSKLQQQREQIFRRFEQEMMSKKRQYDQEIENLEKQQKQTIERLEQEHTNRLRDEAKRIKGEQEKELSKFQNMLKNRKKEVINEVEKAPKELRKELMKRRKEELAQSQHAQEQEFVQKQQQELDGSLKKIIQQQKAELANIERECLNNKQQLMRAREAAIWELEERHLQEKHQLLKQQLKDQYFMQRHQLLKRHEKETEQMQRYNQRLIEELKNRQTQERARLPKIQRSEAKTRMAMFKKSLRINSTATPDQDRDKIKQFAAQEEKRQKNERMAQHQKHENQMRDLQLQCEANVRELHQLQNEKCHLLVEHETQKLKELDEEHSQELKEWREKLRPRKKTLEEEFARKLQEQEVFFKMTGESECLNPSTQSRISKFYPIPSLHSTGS
UniProt Q9BRP1: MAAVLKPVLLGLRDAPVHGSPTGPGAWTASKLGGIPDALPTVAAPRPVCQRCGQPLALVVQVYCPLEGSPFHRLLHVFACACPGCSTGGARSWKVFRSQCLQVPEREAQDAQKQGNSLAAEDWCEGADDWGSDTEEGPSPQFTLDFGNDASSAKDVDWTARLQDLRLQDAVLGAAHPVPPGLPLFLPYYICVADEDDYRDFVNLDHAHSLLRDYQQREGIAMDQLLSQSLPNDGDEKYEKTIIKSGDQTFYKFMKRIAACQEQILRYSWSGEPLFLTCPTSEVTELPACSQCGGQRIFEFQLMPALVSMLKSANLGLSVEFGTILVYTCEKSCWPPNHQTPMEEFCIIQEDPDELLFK
UniProt Q9H1E5: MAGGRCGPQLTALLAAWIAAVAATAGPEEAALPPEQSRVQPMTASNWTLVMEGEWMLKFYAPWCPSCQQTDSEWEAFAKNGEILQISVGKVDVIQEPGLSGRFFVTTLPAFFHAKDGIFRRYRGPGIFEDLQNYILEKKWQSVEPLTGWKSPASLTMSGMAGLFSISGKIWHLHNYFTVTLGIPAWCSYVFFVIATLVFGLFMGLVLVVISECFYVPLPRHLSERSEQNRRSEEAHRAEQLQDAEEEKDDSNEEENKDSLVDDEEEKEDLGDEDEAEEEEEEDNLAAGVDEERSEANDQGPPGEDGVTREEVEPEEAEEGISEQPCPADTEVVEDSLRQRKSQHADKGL
UniProt Q9BRA2: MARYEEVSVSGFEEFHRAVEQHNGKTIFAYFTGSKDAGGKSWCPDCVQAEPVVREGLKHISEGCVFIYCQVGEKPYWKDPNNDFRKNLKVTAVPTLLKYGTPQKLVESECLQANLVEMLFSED

compound: COC(=O)C#Cc1ccccc1 [methyl 3-phenylpropiolate]; test: log2 ratio of iodoacetamide-alkyne labeling of the cysteine site, DMSO over compound (competition); higher = stronger covalent engagement of the cysteine by the compound, active = 1 or more; conditions: 500 µM; treatment time 1 h; system: HEK293T cell lysate
Method in brief: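 Three replicates, each with duplicate channels, were prepared from HEK293T lysate (2 mg/mL) treated with vehicle or electrophile at 500 µM for 1 h at ambient temperature. Iodoacetamide alkyne was then applied for 1 h, and samples were clicked to sCIP-TMT reagents, pooled, trypsin-digested overnight at 37 °C, enriched on streptavidin, acid-eluted and analysed on Orbitrap Eclipse LC-MS/MS with FAIMS, with FragPipe quantification. The log2 competition ratio per cysteine is the mean control-channel divided by the mean compound-channel reporter intensity. Cysteines quantified in only one replicate were left out.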

| Target | log2 ratio of iodoacetamide-alkyne labeling |
| --- | --- |
| TRMT61B C143 (UniProt Q9BVS5) | inactive: 0.598 |
| KIFC1 C212 (UniProt Q9BW19) | inactive: 0.282 |
| GNL3 C280 (UniProt Q9BVP2) | inactive: 0.506 |
| UniProt Q9BRS8_C416 | inactive: 0.832 |
| UNC93B1 C583 (UniProt Q9H1C4) | active: 2.06 |
| LZTS2 C376 (UniProt Q9BRK4) | inactive: 0.634 |
| PUS7L C142 (UniProt Q9H0K6) | inactive: -0.0378 |
| API5 C241 (UniProt Q9BZZ5) | inactive: 0.652 |
| ITPA C146 (UniProt Q9BY32) | inactive: 0.383 |
| ATG5 C19 (UniProt Q9H1Y0) | inactive: 0.309 |
| UniProt Q9BXJ9_C82 | inactive: 0.159 |
| ILKAP C190 (UniProt Q9H0C8) | inactive: -0.0393 |
| MRPL20 C93 (UniProt Q9BYC9) | inactive: -0.00836 |
| FTO C326 (UniProt Q9C0B1) | inactive: 0.0865 |
| WDR33 C120 (UniProt Q9C0J8) | inactive: 0.575 |
| PAPOLG C604 (UniProt Q9BWT3) | inactive: 0.433 |
| UniProt Q9BSH4_C112 | inactive: -0.152 |
| WDR11 C411 (UniProt Q9BZH6) | inactive: 0.261 |
| SLK C1153 (UniProt Q9H2G2) | inactive: 0.388 |
| PDCD2L C100 (UniProt Q9BRP1) | inactive: 0.00256 |
| UniProt Q9H1E5_C326 | inactive: 0.277 |
| TXNDC17 C43 (UniProt Q9BRA2) | active: 1.34 |

Reprinted from the entries so far (2 entries):

| Target | log2 ratio of iodoacetamide-alkyne labeling |
| --- | --- |
| ILKAP C190 (UniProt Q9H0C8) | inactive: -0.0393 |
| MRPL20 C93 (UniProt Q9BYC9) | inactive: -0.00836 |
